From patent publication US20150259687A1
These are yes or no findings as the source states them, for the method shown. In cells and extracts the contact can be indirect. Some binding calls cover weakened binding; strength is not graded here.

Target: FLAG-EGFP-RelA (full length human RelA expressed as a FLAG-EGFP fusion protein in A549 cells) (human), Q04206
Test: co-purification with FLAG-EGFP-RelA on anti-FLAG M2 gel (Load lane), immunoblot with anti-IκBα. IκBα stays in the flow-through of the following Bt-P028F4 aptamer capture.
Conditions: remark: other sources report otherwise

B1: IκBα, P25963 (protein, human, UniProt P25963 1-317, looked up)
single chain: MFQAAERPQEWAMEGPRDGLKKERLLDDRHDSGLDSMKDEEYEQMVKELQEIRLEPQEVPRGSEPWKQQLTEDGDSFLHLAIIHEEKALTMEVIRQVKGDLAFLNFQNNLQQTPLHLAVITNQPEIAEALLGAGCDPELRDFRGNTPLHLACEQGCLASVGVLTQSCTTPHLHSILKATNYNGHTCLHLASIHGYLGIVELLVSLGADVNAQEPCNGRTALHLAVDLQNPDLVSLLLKCGADVNRVTYQGYSPYQLTWGRPSTRIQQQLGQLTLENLQMLPESEDEESYDTESEFTEFTEDELPYDDCVFGGQRLTL
modifications: here or on the partner: phospho-Ser 536 detected in the P028F4 eluate
- binding: binds
